Values from PubChem BioAssay AID1259425 (University of Nebraska Medical Center, 2018).

Test: 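Find knockdowns that reproduce the gene expression pattern seen when KSR1 is lost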 (primary screen)
System: HCT116 human colon cancer cells
Reagent: siRNA pool against human genes, 50 nM siRNA
Measured: 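After 50 nM siRNA pool, branched-DNA assay measures six marker transcripts per well, minus blank, normalised to the geometric mean of two housekeeping transcripts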
Scale: BNIP3L mRNA: higher = more BNIP3L transcript after knockdown; NDRG1 mRNA: higher = more NDRG1 transcript after knockdown; BNIP3 mRNA: higher = more BNIP3 transcript after knockdown; ALDOC mRNA: higher = more ALDOC transcript after knockdown; ACSL5 mRNA: higher = more ACSL5 transcript after knockdown
Shown is a random part of about 14,000 reagents. Not stated in the record: the time to read-out.

target | BNIP3L mRNA, set 1 | NDRG1 mRNA, set 1 | BNIP3 mRNA, set 1 | ALDOC mRNA, set 1 | ACSL5 mRNA, set 1
SLC2A11 | 2.5 | 7.23 | 4.27 | 0.637 | 0.279
GPR26 | 0.104 | 0.201 | 0.47 | 0.0283 | 0.207
MYBPH | 0.14 | 0.425 | 0.417 | 0.0591 | 0.197
PRKAB2 | 0.147 | 0.1 | 0.26 | 0.0284 | 0.108
MAPK8IP3 | 0.156 | 0.17 | 0.341 | 0.0147 | 0.286
ANXA2P1 | 0.296 | 0.654 | 0.695 | 0.0665 | 0.124
STK10 | 0.0862 | 0.139 | 0.4 | 0.0157 | 0.393
KLHL21 | 0.083 | 0.313 | 0.264 | 0.0265 | 0.218
LYZL6 | 0.151 | 0.266 | 0.335 | 0.034 | 0.34
TIMM10B | 0.148 | 0.21 | 0.281 | 0.014 | 0.159
FEM1A | 0.0394 | 0.114 | 0.265 | 0.0158 | 0.105
EEF2 | 0.0895 | 0.114 | 0.22 | 0.0162 | 0.214
SERPINA3 | 0.186 | 0.137 | 0.326 | 0.0308 | 0.264
CUTALP | 0.219 | 0.236 | 0.522 | 0.0876 | 0.255
WARS1 | 0.0563 | 0.232 | 0.265 | 0.012 | 0.146
RHPN2 | 0.142 | 0.614 | 0.435 | 0.0774 | 0.674
GNB1 | 0.145 | 0.101 | 0.275 | 0.0212 | 0.267
HSPBP1 | 0.0754 | 0.519 | 0.275 | 0.00877 | 0.117
NUMB | 0.122 | 0.145 | 0.218 | 0.0391 | 0.0932
CRYZL1 | 0.142 | 0.31 | 0.286 | 0.0387 | 0.223
ARL6 | 0.219 | 0.115 | 0.231 | 0.101 | 0.7
GLI4 | 0.0911 | 0.237 | 0.325 | 0.00334 | 0.157
YBX3 | 0.146 | 0.123 | 0.315 | 0.00298 | 0.157
TMEM242 | 0.0664 | 0.112 | 0.43 | 0.0133 | 0.199
SND1-IT1 | 0.247 | 0.093 | 0.296 | 0.0258 | 0.245
RNF5 | 0.11 | 0.245 | 0.52 | 0.0924 | 0.211
RCAN3 | 0.11 | 0.132 | 0.213 | 0.0142 | 0.203
LOC83459 (retired record) | 0.642 | 0.547 | 0.449 | 0.213 | 0.643
CIC | 0.059 | 0.0875 | 0.309 | 0.0144 | 0.0661
RPLP2 | 0.0614 | 0.358 | 0.313 | 0.0214 | 0.0721
LDLR | 0.0806 | 0.131 | 0.23 | 0.0345 | 0.167
NTSR1 | 0.17 | 0.108 | 0.239 | 0.0384 | 0.231
MPV17 | 0.142 | 0.0835 | 0.316 | 0.045 | 0.109
PYCR1 | 0.141 | 0.207 | 0.341 | 0.0396 | 0.128
